From PMC5346138, “High-affinity RNA binding by a hyperthermophilic single-stranded DNA-binding protein” come the findings set out here.

For at least one entry, the source does not settle the construct or the ends of the probe. At least one verdict rests on a figure or table, not on a statement of the authors. Protein sequences can lack the tags named with them.

In this data set the target is T1, SsoSSB (single-stranded DNA-binding protein) (Sulfolobus solfataricus) (UniProt Q97W73).
T1 sequence (looked up, limits assumed): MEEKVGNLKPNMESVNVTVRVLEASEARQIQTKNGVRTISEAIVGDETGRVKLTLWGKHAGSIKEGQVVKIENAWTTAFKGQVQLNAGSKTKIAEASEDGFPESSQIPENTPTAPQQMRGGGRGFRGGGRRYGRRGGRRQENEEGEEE
Put plainly: ITC. Conditions: 50 C, named only in Fig. 1 legend, ITC: 20 mM MES pH 6.5, 100 mM K-glutamate, 1 mM MgCl2, 50 C, recombinant protein.

In the case of “AAAAAAAAAAAAAAAAAAAAA [21 nt poly-A DNA]”, the binding result (may be the same titration as the 21T row, single-stranded DNA) is recorded as “binds”.

On to “AAAAAAAAAAAAAAAAAAAAA [R21A (21 nt poly-rA)]”, for which the binding result (may be the same titration as the 21U row) is listed as “binds”.
